Reference: paper PMC5838202
These are yes or no findings as the source states them, for the method shown. For part of these data: Binding seen in cells or lysates may run through a third protein. Some binding calls cover weakened binding; strength is not graded here.

Chains of the proteins cited; added tags and fusions are not shown. Lines headed by an entry give the natural chain unless they say otherwise; changes in a name come on top. A line that says so, or that is headed by a name, gives the form on record, which may keep a tag or linker.
UniProt P06748: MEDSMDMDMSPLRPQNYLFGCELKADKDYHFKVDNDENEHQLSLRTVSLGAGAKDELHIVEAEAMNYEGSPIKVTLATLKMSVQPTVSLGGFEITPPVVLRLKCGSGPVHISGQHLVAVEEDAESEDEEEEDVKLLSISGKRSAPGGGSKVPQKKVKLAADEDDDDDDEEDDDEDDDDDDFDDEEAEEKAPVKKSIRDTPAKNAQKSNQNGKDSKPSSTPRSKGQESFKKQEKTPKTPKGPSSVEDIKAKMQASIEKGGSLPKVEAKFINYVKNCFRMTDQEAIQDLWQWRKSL
G196-NPM1 (LG) (P06748, form named): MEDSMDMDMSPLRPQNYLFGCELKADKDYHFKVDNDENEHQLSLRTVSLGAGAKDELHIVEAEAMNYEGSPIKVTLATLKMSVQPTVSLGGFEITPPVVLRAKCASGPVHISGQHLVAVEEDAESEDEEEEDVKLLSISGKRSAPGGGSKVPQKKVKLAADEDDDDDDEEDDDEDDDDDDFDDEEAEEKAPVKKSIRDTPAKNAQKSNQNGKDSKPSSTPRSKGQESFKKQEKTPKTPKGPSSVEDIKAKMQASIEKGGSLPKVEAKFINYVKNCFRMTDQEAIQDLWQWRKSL
NPM1c, endogenous in OCI-AML3 cells (P06748, form named): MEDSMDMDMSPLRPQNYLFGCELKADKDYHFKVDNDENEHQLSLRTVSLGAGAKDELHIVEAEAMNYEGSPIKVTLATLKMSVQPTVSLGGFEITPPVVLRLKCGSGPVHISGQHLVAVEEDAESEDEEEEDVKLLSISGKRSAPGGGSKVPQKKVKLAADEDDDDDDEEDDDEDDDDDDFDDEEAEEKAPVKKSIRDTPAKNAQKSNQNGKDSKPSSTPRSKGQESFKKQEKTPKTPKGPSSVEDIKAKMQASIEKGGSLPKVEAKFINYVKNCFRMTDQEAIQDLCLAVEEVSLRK

How the values were obtained:
[1] = target: G196-NPM1 (LG) (human) (UniProt P06748); assay: co-IP; anti-G196 antibody on Protein G Sepharose; Triton X-100 soluble and insoluble lysates of transfected 293T cells, treated with RNase A (40 µg/ml, 15 min, 37 °C); immunoblot
[2] = target: G196-NPM1 (LG) (human) (UniProt P06748); assay: SEC; Triton X-100 soluble lysate of transfected 293T cells, without RNase A; Superdex 200 Increase 10/300 GL in PBS with 1% Triton X-100; fractions by immunoblot
[3] = target: NPM1 (WT), endogenous in OCI-AML3 cells (human (endogenous in OCI-AML3)) (UniProt P06748); assay: co-IP; OCI-AML3 cells lysed in PBS with 1% Triton X-100, 0.1% SDS, 0.5% DOC and 15 mM imidazole; immunoprecipitated with anti-NPM1 (FC82291, does not recognize NPM1c); immunoblot

Substance: endogenous NPM1 (293T cells) (from UniProt P06748 1-294)
- binding [1]: no binding

Substance: G196-NPM1 (LG) (from UniProt P06748 1-294)
- binding [2]: no binding

Substance: NPM1c, endogenous in OCI-AML3 cells (from UniProt P06748 1-294)
- binding [3]: binds
